Laboratory results: PMC3072367
These are yes or no findings as the source states them, for the method shown. Binding seen in cells or lysates may run through a third protein. Some entries that bind do so weakly or less than the wild type. One block for each molecule: values may come before it.

The chains behind the UniProt entries cited, without tags or fusion partners.
UniProt O00471: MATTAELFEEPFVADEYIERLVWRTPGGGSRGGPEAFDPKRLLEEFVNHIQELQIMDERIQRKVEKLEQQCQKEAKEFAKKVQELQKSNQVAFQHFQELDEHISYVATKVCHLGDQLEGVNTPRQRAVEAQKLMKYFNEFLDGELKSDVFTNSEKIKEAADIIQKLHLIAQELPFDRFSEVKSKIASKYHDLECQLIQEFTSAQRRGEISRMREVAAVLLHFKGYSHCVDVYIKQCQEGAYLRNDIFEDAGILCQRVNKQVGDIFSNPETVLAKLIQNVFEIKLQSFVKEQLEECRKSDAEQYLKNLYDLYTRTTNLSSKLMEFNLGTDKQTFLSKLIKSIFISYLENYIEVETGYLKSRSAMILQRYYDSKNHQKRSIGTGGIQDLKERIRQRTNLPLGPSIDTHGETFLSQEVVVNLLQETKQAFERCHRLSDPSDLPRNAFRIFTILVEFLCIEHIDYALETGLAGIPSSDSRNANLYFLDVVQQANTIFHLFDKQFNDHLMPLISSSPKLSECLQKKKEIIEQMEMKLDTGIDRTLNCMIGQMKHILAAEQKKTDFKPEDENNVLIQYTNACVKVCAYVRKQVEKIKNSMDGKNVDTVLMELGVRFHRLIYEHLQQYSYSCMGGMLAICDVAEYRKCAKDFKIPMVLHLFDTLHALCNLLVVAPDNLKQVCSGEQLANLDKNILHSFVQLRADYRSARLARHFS
UniProt O35382: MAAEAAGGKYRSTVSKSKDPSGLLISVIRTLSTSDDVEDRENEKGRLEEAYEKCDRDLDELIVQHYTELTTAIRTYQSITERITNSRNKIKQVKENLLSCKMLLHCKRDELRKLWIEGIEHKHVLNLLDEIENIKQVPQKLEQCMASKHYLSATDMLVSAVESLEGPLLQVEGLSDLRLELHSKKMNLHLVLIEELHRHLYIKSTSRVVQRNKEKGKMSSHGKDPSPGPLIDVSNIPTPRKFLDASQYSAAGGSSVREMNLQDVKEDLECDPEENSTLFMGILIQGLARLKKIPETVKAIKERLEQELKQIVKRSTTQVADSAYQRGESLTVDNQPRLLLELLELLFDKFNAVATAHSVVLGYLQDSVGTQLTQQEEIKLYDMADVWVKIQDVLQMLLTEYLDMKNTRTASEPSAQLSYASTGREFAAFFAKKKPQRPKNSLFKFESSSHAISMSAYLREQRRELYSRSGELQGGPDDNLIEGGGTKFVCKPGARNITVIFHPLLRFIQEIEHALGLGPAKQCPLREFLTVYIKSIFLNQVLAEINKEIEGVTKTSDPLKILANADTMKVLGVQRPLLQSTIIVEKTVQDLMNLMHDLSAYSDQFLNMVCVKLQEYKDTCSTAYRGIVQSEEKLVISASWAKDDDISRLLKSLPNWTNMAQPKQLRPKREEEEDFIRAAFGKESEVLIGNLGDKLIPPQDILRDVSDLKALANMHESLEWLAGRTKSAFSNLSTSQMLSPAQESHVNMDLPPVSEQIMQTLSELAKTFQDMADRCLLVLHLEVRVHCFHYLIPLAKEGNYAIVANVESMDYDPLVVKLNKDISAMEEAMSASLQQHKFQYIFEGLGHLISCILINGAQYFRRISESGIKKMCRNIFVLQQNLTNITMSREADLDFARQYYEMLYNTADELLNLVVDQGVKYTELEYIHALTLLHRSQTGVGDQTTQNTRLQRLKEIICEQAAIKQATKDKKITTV
UniProt P04406: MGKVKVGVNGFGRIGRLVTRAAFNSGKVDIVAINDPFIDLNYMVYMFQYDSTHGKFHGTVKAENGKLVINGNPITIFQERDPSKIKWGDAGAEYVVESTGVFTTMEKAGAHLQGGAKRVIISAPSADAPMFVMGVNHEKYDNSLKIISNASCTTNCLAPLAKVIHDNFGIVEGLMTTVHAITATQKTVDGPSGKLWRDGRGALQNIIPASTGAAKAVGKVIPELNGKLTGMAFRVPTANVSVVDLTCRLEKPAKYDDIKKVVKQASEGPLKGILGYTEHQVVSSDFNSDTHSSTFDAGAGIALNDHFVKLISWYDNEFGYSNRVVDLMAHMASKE
UniProt Q8IY31: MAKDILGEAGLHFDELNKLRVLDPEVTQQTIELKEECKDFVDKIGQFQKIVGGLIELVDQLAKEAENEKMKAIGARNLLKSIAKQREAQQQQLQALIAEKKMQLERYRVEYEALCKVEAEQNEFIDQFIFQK

Tests used:
[1] = target: T1, polycystin-2 (endogenous, mouse) (mouse (endogenous in mouse kidney and in 94D and BAP2 cells)) (UniProt O35245); assay: co-IP; intracellular vesicle fractions of mouse kidney lysate incubated overnight with polycystin-2 antibody or control mouse IgG, ProteinG Dynabeads; Western blot for Sec8
T1 sequence: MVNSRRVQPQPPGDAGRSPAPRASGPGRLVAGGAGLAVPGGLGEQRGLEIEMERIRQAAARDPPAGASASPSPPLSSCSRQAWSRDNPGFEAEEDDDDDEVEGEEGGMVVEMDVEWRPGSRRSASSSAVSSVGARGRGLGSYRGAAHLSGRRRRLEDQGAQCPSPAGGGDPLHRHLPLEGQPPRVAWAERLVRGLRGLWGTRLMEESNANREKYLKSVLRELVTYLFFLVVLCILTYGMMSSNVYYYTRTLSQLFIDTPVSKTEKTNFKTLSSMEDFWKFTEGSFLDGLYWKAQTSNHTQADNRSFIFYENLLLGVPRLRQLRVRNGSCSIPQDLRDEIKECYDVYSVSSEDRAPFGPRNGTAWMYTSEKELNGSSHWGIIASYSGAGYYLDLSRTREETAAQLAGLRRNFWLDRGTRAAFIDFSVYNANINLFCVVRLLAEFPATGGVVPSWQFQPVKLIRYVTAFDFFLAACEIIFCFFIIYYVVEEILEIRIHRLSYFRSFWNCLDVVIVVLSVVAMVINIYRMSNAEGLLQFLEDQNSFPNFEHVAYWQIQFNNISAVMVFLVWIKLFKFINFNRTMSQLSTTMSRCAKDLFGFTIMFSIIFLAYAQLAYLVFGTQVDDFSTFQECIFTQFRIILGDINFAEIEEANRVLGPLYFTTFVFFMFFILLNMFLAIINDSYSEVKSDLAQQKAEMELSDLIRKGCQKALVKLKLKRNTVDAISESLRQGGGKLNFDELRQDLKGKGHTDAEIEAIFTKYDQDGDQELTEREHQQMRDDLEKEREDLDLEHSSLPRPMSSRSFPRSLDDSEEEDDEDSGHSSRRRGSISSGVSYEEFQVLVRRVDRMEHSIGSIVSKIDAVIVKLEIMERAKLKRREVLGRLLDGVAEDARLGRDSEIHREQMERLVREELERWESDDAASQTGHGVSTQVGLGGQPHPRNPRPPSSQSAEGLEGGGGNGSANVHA

[2] = target: Sec10-GST (full-length human Sec10 fused to GST) (human) (UniProt O00471); assay: pull-down; Sec10-GST or GST only bound to glutathione-Sepharose, incubated overnight with lysate of wild-type HEK293 cells; Western blot for IFT88, IFT20, Sec8, GAPDH; only the target purified
[3] = target: Sec10-GST (full-length human Sec10 fused to GST) (human) (UniProt O00471); assay: pull-down; in vitro translated Sec8, polycystin-2, IFT88 and p53, followed by pulldown with Sec10-GST; only the target purified

- binding [1]: binds
Molecule: exocyst Sec8 (endogenous, mouse kidney) (from UniProt O35382 1-975)

- binding [3]: no binding
Molecule: p53 (in vitro translated) (from UniProt P04637 1-393)

- binding [3]: no binding
B1: polycystin-2 (in vitro translated) (protein, UniProt Q13563 1-968)
chain: MVNSSRVQPQQPGDAKRPPAPRAPDPGRLMAGCAAVGASLAAPGGLCEQRGLEIEMQRIRQAAARDPPAGAAASPSPPLSSCSRQAWSRDNPGFEAEEEEEEVEGEEGGMVVEMDVEWRPGSRRSAASSAVSSVGARSRGLGGYHGAGHPSGRRRRREDQGPPCPSPVGGGDPLHRHLPLEGQPPRVAWAERLVRGLRGLWGTRLMEESSTNREKYLKSVLRELVTYLLFLIVLCILTYGMMSSNVYYYTRMMSQLFLDTPVSKTEKTNFKTLSSMEDFWKFTEGSLLDGLYWKMQPSNQTEADNRSFIFYENLLLGVPRIRQLRVRNGSCSIPQDLRDEIKECYDVYSVSSEDRAPFGPRNGTAWIYTSEKDLNGSSHWGIIATYSGAGYYLDLSRTREETAAQVASLKKNVWLDRGTRATFIDFSVYNANINLFCVVRLLVEFPATGGVIPSWQFQPLKLIRYVTTFDFFLAACEIIFCFFIFYYVVEEILEIRIHKLHYFRSFWNCLDVVIVVLSVVAIGINIYRTSNVEVLLQFLEDQNTFPNFEHLAYWQIQFNNIAAVTVFFVWIKLFKFINFNRTMSQLSTTMSRCAKDLFGFAIMFFIIFLAYAQLAYLVFGTQVDDFSTFQECIFTQFRIILGDINFAEIEEANRVLGPIYFTTFVFFMFFILLNMFLAIINDTYSEVKSDLAQQKAEMELSDLIRKGYHKALVKLKLKKNTVDDISESLRQGGGKLNFDELRQDLKGKGHTDAEIEAIFTKYDQDGDQELTEHEHQQMRDDLEKEREDLDLDHSSLPRPMSSRSFPRSLDDSEEDDDEDSGHSSRRRGSISSGVSYEEFQVLVRRVDRMEHSIGSIVSKIDAVIVKLEIMERAKLKRREVLGRLLDGVAEDERLGRDSEIHREQMERLVREELERWESDDAASQISHGLGTPVGLNGQPRPRSSRPSSSQSTEGMEGAGGNGSSNVHV

- binding [3]: no binding
B2: IFT88 (in vitro translated) (protein, UniProt Q13099 1-824)
chain: MMQNVHLAPETDEDDLYSGYNDYNPIYDIEELENDAAFQQAVRTSHGRRPPITAKISSTAVTRPIATGYGSKTSLASSIGRPMTGAIQDGVTRPMTAVRAAGFTKAALRGSAFDPLSQSRGPASPLEAKKKDSPEEKIKQLEKEVNELVEESCIANSCGDLKLALEKAKDAGRKERVLVRQREQVTTPENINLDLTYSVLFNLASQYSVNEMYAEALNTYQVIVKNKMFSNAGILKMNMGNIYLKQRNYSKAIKFYRMALDQVPSVNKQMRIKIMQNIGVTFIQAGQYSDAINSYEHIMSMAPNLKAGYNLTICYFAIGDREKMKKAFQKLITVPLEIDEDKYISPSDDPHTNLVTEAIKNDHLRQMERERKAMAEKYIMTSAKLIAPVIETSFAAGYDWCVEVVKASQYVELANDLEINKAVTYLRQKDYNQAVEILKVLEKKDSRVKSAAATNLSALYYMGKDFAQASSYADIAVNSDRYNPAALTNKGNTVFANGDYEKAAEFYKEALRNDSSCTEALYNIGLTYEKLNRLDEALDCFLKLHAILRNSAEVLYQIANIYELMENPSQAIEWLMQVVSVIPTDPQVLSKLGELYDREGDKSQAFQYYYESYRYFPCNIEVIEWLGAYYIDTQFWEKAIQYFERASLIQPTQVKWQLMVASCFRRSGNYQKALDTYKDTHRKFPENVECLRFLVRLCTDLGLKDAQEYARKLKRLEKMKEIREQRIKSGRDGSGGSRGKREGSASGDSGQNYSASSKGERLSARLRALPGTNEPYESSSNKEIDASYVDPLGPQIERPKTAAKKRIDEDDFADEELGDDLLPE

Further lines, the molecule ahead of its results:

Molecule: GAPDH (endogenous, HEK293) (from UniProt P04406 1-335)
- binding [2]: no binding

Molecule: IFT20 (endogenous, HEK293) (from UniProt Q8IY31 1-132)
- binding [2]: binds
